The experiment in a line: qHTS Assay for Lipid Storage Modulators in Drosophila S3 Cells.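 For cell number change: cells counted by Cell Tracker Red CMTPX staining in the red channel.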 The note with it: BODIPY lipid droplet fluorescence, 18-24 h; for cell number change: measured here: cell count max response, cells fed with added oleic acid. The gist of the method:
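Drosophila S3 cells loaded with oleic acid (400 uM, as added) and compounds at several concentrations; lipid droplets imaged by 488-nm laser-scanning cytometry, 500–530 nm intensity and object ratio to cell channel. Percent activity normalized to 20 uM Triacsin C.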

Setting [1] is: measured here: cell number channel AC50, cells fed with added oleic acid.
Where [2] appears, read: measured here: lipid fluorescence (Fed channel) AC50, cells fed with added oleic acid.

Molecules are shown by their SMILES. This is one part of the list. These are further read-outs of the screen, such as a control signal, another cell line or another target. No call is given for them. Compounds called inactive in the main read-out are mostly missing here. Words in brackets tell the shape of the fitted curve; partial curves, single points and poor fits give uncertain potencies.

Broadly, the AC50 is the concentration at which the activity in the assay is half-maximal. A high value points to weaker potency. Consider `OC(CN1CCN(c2ccccc2Cl)CC1)c1ccccc1` (stereo unspecified), for which the cell number change was found to be 11.7%. Further, the half-maximal activity concentration (AC50) under setting [1] is 6.51 µM [rising, single point].
As to `N#CC1=C(N)N2C(=C(C#N)C1c1ccc(Br)cc1)Nc1ccccc12` (stereo unspecified), the cell number change was -66.7%. For the same molecule, the concentration at half-maximal activity (AC50) under setting [1] is 14.6 µM [falling, single point]. Under setting [2], the AC50 is 20.6 µM [falling, partial curve].
`CCOc1ccc(NC(=O)CC(NCc2ccccn2)C(=O)O)cc1` (stereo unspecified): the cell number change is -22%. Besides, the AC50 under setting [2] was 32.6 µM [falling, single point].
For `Cc1nc2ccccc2n1CC(O)COc1ccccc1Cl` (stereo unspecified), the AC50 runs as follows: under setting [1], 6.51 µM [rising, single point]; under setting [2], 6.51 µM [rising, single point].
Turning to `CC(=O)c1ccc(NC(=O)Cn2cnc(S(=O)(=O)N3CCCCC3)c2)cc1`, the cell number change is -14.6%.
For the molecule `Cc1ccc(C2=CC(=O)C[C@H](c3ccc(Cl)cc3)C2)cc1`, the cell number change is -29.6%. The AC50 under setting [2] was 0.517 µM [rising, partial curve, poor fit].
`COc1ccc(-c2nn(C)c(=O)c3ccccc23)cc1NC(=O)Cn1nc(C)c2ccccc2c1=O`: the cell number change was -10.4%. For the same molecule, the AC50 under setting [1] was 6.51 µM [rising, single point]. In addition, the AC50 under setting [2] was 0.58 µM [falling, single point].
Take `O=C(NCCc1csc(-c2ccccc2)n1)c1ccco1`: the cell number change is -18.2%. Moreover, under setting [2], the AC50 is 3.66 µM [rising, single point].
Consider `COc1ccccc1/C=N/NC(=O)c1c(-c2ccccc2)noc1C`, for which the cell number change is -11.9%.
For `CCOCc1nc(C)c(Cl)c(NS(=O)(=O)c2ccc(N)cc2)n1`, the cell number change came to 8.16%. The AC50 under setting [2] was 7.31 µM [falling, single point].
As for `Cc1cc(OCC(=O)NC2CC(C)(C)NC(C)(C)C2)c(C)cc1Br`, the cell number change is -0.293%. For the same molecule, the AC50 under setting [2] was 23.1 µM [rising, single point].
For the molecule `CCCOc1ccc(S(=O)(=O)Nc2ccccn2)c2ccccc12`, the cell number change worked out at 15%. The AC50 under setting [2] was 29.1 µM [rising, single point].
Take `O=S(=O)(Nc1ccccc1O)c1cccc2cccnc12`: the cell number change was -7.47%. The AC50 under setting [2] was 13 µM [falling, partial curve].
Take `COC(=O)c1nc2nc(C)cc(C(F)(F)F)n2n1`: the cell number change worked out at 14.8%.
Consider `CCOC(=O)C1(C)NC(c2ccco2)C2C(=O)N(c3ccccc3)C(=O)C21` (stereo unspecified), for which, under setting [2], the AC50 was 0.164 µM [falling, full curve, poor fit].
Consider `O=C(Nc1ccc(-c2cn3c(n2)SCC3)cc1)c1ccc2c(c1)OCO2`, for which the cell number change turned out to be 31.2%. For the same molecule, the AC50 under setting [1] is 29.1 µM [rising, single point]. Also, the concentration at half-maximal activity (AC50) under setting [2] is 20.6 µM [rising, single point].
As to `CCn1c(CNc2ccc(F)cc2)nnc1SCC(=O)OC1CCCCC1`, the cell number change came out at 4.42%. Further, the AC50 under setting [2] was 1.03 µM [falling, full curve, poor fit].
In the case of `CCOc1ccc(/C=C/C(=O)N(C)CC(=O)Nc2cccc(F)c2)cc1OCC`, the cell number change came to 50.5%. Under setting [1], the AC50 is 8.2 µM [rising, partial curve, poor fit].
Consider `O=C(CSc1nnc(NC(=O)c2ccc(F)cc2)s1)NC1CC1`, for which the cell number change amounted to 7.26%. Further, the AC50 under setting [2] was 29.1 µM [rising, single point].
As to `CCOc1ccccc1N1C(=O)CC(N(O)c2ccccc2)C1=O` (stereo unspecified), the cell number change amounted to 8.29%. For the same molecule, under setting [2], the AC50 was 18.4 µM [rising, single point].
Regarding `CCCNC(=O)c1ccc2c(=O)n(Cc3ccco3)c(=S)[nH]c2c1`, the AC50 reads like this: under setting [1], 0.58 µM [rising, partial curve]; under setting [2], 1.03 µM [rising, partial curve].
Turning to `Cc1c(N2C(=O)CSC2=S)c(=O)n(-c2ccccc2)n1C`, the cell number change came to 6.99%. In addition, the concentration at half-maximal activity (AC50) under setting [1] is 6.51 µM [falling, single point]. The AC50 under setting [2] was 6.51 µM [falling, single point].
Regarding `Cc1ccc2c(c1)CCCN2C(=O)c1ccco1`, the cell number change is 25.1%. The AC50 under setting [2] is 20.6 µM [rising, partial curve].
Consider `COc1ccc(NS(=O)(=O)c2cccc(NC(=O)CCC(=O)c3ccc(Cl)cc3)c2)cc1`, for which the cell number change was -31.6%. Besides, under setting [1], the AC50 is 20.6 µM [falling, single point]. For the same molecule, the AC50 under setting [2] was 29.1 µM [falling, single point].
In the case of `CCCOC(=O)c1cccc(NC(=O)COc2ccc([N+](=O)[O-])cc2)c1`, the cell number change was -10.2%.
With `O=C(NCc1cccnc1)c1cc(C(=O)C2CC2)c[nH]1`, the cell number change is -22.2%. Also, the AC50 under setting [2] is 0.82 µM [falling, full curve].
Take `COC(=O)c1sccc1NC(=O)/C=C\c1ccc(Cl)cc1Cl`: the AC50 under setting [1] is 0.461 µM [rising, full curve].
For `COc1ccc(C(=O)N(C)CCCC2CCCC2)cc1OC1CCN(C(C)C)CC1`, the cell number change worked out at 1.08%. For the same molecule, the AC50 under setting [1] is 1.3 µM [falling, full curve, poor fit].
`CC(C)CCNC(=O)CCCn1c(=O)[nH]c2ccc(Br)cc2c1=O`: the cell number change was -7.67%. Further, the half-maximal activity concentration (AC50) under setting [2] was 6.51 µM [falling, single point].
Regarding `COc1ccc(OCC(=O)Nc2c(C(=O)N(CCN(C)C)Cc3ccco3)oc3ccccc23)cc1`, the cell number change was found to be 13.7%. For the same molecule, under setting [1], the AC50 was 2.91 µM [rising, single point]. Besides, the AC50 under setting [2] is 9.2 µM [rising, partial curve].
Turning to `O=C(O)c1ccc(N2CC3CC(C2)c2cccc(=O)n2C3)c(NS(=O)(=O)c2cccc(C(F)(F)F)c2)c1` (stereo unspecified), the cell number change was -8.38%.
For `COCCNC(=O)C(Cc1c[nH]c2ccccc12)NC(=O)OCc1ccccc1` (stereo unspecified), the cell number change is -2.81%.
For `CC1CC(C#N)N(N(C)C)C1=C(C#N)C#N` (stereo unspecified), the cell number change was -24.5%. The AC50 under setting [1] was 0.00461 µM [falling, full curve].
For the molecule `COc1ccc(Nc2cc(C)nc(N3CCN(C(=O)c4ccc5c(c4)OCO5)CC3)n2)cc1`, the cell number change is -25.3%. Also, the AC50 under setting [1] was 2.06 µM [rising, partial curve].
`COc1ccc(OC(=O)Nc2ccccc2)cc1`: the cell number change is -4.75%. Besides, the AC50 under setting [2] was 29.1 µM [falling, single point].
`Cc1csc(CN(C)C(=O)CC2C(=O)NCCN2Cc2ccc(-c3ccccc3)cc2)n1` (stereo unspecified): the cell number change was found to be 14.8%. Also, under setting [2], the AC50 was 1.64 µM [rising, partial curve, poor fit].
`O=C(CCC1CCCN(C(=O)c2ccsc2)C1)N1CCN(c2ccccn2)CC1` (stereo unspecified): the cell number change came out at 30.8%. Under setting [1], the AC50 was 0.651 µM [rising, full curve, poor fit]. Moreover, under setting [2], the AC50 is 0.731 µM [rising, full curve, poor fit].
On to `O=C(NC(=S)Nc1ccccc1[N+](=O)[O-])c1ccccc1Cl`, for which the cell number change amounted to 13.9%. Besides, the AC50 under setting [2] was 2.91 µM [falling, single point].
With `COc1ccc(N(C)C(=O)CCS(=O)(=O)c2cccc3nonc23)cc1`, the cell number change was -27.1%. The AC50 under setting [1] was 0.13 µM [falling, full curve, poor fit]. Also, under setting [2], the AC50 was 2.59 µM [falling, single point].
For `CCOC(=O)C1=C2SCCN2C(=O)C(C#N)C1(C)C` (stereo unspecified), the cell number change is -17%. Also, under setting [2], the AC50 is 4.11 µM [rising, single point].
For the molecule `O=S(=O)(Nc1cccc(-c2ccc3nncn3n2)c1)c1cc(F)ccc1F`, under setting [1], the AC50 is 0.0058 µM [rising, full curve, poor fit].
Consider `Cc1ccc(NC(=O)N2CCCCCC2)c(C)c1`, for which the cell number change is -26.2%.
Turning to `O=C(c1ccco1)N1CCN(S(=O)(=O)c2ccc(S(=O)(=O)NC3CC3)cc2)CC1`, the cell number change was -30.7%. The AC50 under setting [1] is 14.6 µM [falling, single point]. The AC50 under setting [2] is 4.11 µM [falling, partial curve].
With `CC(C)c1nc2sc3c(NCc4ccccc4)ncnc3c2c2c1COC(C)(C)C2`, the cell number change was determined as 25.4%. In addition, under setting [2], the AC50 is 2.59 µM [rising, partial curve].
Consider `O=C(O)CNC(=O)CC1S/C(=N/N=C/c2ccccc2O)NC1=O` (stereo unspecified), for which the cell number change was found to be 11.4%. Moreover, under setting [2], the AC50 is 0.259 µM [rising, full curve, poor fit].
For `CCN1CCc2c(sc(NC(=O)c3ccc(S(=O)(=O)N(CC)c4ccccc4)cc3)c2C(N)=O)C1`, the cell number change came to 82.4%. For the same molecule, the AC50 under setting [1] was 32.6 µM [rising, single point].
`CCOC(=O)c1nn(-c2ccccc2)c(C(=O)OCC)c1N`: the cell number change is -10.7%. The AC50 under setting [2] was 9.2 µM [rising, partial curve].
Consider `NC(=O)C1CCN(C(=O)c2ccc3nc(-c4ccccc4)c(-c4ccccc4)nc3c2)CC1`, for which the cell number change was -5.42%. Further, the AC50 under setting [2] is 2.06 µM [falling, partial curve].
Consider `O=C(N/C(=C\c1ccco1)C(=O)N1CCCC(CO)C1)c1ccccc1` (stereo unspecified), for which the cell number change came out at 14.5%. Further, the AC50 under setting [2] was 3.55 µM [falling, full curve, poor fit].
On to `O=C(CN1CCN(Cc2ccccc2)CC1)Nc1ccccc1`, for which the cell number change is -4.19%. In addition, the AC50 under setting [2] is 0.13 µM [rising, full curve, poor fit].
As for `O=C(NC1CCCc2ccccc21)c1cn2ccccc2n1` (stereo unspecified), the cell number change was 24.7%.
For the molecule `O=C(O)c1ccc(S(=O)(=O)N2CCCc3ccccc32)cc1`, the cell number change is -4.96%.
On to `COc1ccc(Nc2ncnc3nc[nH]c23)cc1OC`, for which the AC50 under setting [2] is 2.91 µM [falling, single point].
For `Cc1cccc(-c2noc(CN(C)C(=O)c3ccco3)n2)c1`, the cell number change is -15.8%.
As to `CCN(CC)c1ccc(S(=O)(=O)N2CCCCC2)cc1NC(=O)C1=COCCO1`, the cell number change was 50%. Further, under setting [1], the AC50 is 6.51 µM [falling, single point].
As for `Cn1c(=O)c2[nH]c(-c3ccccc3Cl)c(O)c2n(C)c1=O`, the cell number change was determined as 1.74%. For the same molecule, the AC50 under setting [2] was 6.51 µM [falling, single point].
For `COc1cc(NC(=O)c2ccccc2F)c(OC)cc1NC(=O)CN1CCCCC1`, the cell number change came out at 8.75%. The AC50 under setting [2] was 0.116 µM [rising, single point].
Turning to `CCc1ccc(-c2ccc(SCC(=O)Nc3nnc(C)s3)nn2)cc1`, the cell number change is -24.8%. In addition, the AC50 under setting [2] was 5.8 µM [falling, single point].
Turning to `COC(=O)c1ccc(Cc2ccccc2)o1`, the AC50 under setting [2] is 0.651 µM [falling, full curve, poor fit].
Regarding `Cc1cc(C)c(NC(=O)CSc2nc3c(c(=O)n2C)SC(C)C3)c(C)c1` (stereo unspecified), the AC50 under setting [2] is 0.0517 µM [rising, full curve].
As for `O=C1c2ccccc2C(=O)c2c1cccc2N1CCN(CCO)CC1`, the cell number change is -36.4%. Under setting [1], the AC50 is 1.3 µM [falling, full curve]. For the same molecule, the AC50 under setting [2] was 3.26 µM [falling, full curve, poor fit].

Source of the values: PubChem BioAssay AID2685 (National Center for Advancing Translational Sciences (NCATS), 2010).
